Source: the supplement of paper PMC10849652
The list shows a part of the results.

Protein sequences, listed by entry. Tags and fused reporters are not part of them. Lines headed by an entry give the natural chain unless they say otherwise; changes in a name come on top.
UniProt Q9UPR3: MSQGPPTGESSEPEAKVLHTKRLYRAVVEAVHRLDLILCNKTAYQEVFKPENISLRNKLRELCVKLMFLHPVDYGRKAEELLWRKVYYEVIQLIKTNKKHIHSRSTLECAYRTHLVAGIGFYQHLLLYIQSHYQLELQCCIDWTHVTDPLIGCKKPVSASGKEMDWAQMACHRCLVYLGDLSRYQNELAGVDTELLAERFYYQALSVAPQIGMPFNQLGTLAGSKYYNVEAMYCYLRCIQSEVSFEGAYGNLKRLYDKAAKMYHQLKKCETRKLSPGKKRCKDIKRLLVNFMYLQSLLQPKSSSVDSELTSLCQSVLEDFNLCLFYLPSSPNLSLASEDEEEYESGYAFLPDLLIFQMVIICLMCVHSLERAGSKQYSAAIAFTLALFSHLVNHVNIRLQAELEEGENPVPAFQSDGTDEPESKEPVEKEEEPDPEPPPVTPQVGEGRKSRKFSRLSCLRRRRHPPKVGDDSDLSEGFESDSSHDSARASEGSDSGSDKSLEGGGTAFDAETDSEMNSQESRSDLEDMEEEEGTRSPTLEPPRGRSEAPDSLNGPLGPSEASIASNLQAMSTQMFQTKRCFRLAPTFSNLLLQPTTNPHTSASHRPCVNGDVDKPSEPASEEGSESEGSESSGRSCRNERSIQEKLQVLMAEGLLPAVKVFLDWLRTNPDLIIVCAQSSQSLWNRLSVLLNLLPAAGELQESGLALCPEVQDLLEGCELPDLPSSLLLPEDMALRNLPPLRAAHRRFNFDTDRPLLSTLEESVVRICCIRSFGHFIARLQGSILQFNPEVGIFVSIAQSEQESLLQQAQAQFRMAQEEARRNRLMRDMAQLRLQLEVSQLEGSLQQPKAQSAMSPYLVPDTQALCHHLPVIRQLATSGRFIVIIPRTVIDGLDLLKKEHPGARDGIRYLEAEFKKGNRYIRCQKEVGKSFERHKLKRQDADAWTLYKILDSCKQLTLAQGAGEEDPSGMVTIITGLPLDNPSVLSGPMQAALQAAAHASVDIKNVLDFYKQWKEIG
UniProt Q13425: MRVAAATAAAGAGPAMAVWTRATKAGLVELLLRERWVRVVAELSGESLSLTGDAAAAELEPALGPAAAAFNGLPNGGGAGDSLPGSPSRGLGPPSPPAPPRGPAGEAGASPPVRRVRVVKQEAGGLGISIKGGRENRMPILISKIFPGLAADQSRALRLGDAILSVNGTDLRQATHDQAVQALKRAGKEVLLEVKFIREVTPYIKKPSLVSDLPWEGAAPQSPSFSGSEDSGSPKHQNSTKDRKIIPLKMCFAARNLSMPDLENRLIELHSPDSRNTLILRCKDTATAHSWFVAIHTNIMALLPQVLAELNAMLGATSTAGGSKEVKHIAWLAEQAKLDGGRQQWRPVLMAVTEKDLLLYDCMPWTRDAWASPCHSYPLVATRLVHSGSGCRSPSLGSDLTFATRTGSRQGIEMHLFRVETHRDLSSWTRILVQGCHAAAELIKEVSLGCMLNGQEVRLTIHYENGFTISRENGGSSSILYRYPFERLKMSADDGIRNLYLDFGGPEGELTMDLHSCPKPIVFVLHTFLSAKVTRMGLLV
UniProt O14508, whole entry, looked up: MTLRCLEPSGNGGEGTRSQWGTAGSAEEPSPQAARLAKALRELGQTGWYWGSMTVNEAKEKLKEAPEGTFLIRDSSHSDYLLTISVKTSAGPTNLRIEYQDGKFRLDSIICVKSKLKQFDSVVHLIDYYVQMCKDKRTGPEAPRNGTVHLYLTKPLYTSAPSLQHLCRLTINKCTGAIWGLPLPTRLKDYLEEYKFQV
UniProt O76070, whole entry, looked up: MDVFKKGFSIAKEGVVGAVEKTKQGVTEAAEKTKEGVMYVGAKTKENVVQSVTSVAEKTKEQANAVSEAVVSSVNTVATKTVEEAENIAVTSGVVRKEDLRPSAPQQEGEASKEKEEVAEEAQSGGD
UniProt Q9NTJ3, whole entry, looked up: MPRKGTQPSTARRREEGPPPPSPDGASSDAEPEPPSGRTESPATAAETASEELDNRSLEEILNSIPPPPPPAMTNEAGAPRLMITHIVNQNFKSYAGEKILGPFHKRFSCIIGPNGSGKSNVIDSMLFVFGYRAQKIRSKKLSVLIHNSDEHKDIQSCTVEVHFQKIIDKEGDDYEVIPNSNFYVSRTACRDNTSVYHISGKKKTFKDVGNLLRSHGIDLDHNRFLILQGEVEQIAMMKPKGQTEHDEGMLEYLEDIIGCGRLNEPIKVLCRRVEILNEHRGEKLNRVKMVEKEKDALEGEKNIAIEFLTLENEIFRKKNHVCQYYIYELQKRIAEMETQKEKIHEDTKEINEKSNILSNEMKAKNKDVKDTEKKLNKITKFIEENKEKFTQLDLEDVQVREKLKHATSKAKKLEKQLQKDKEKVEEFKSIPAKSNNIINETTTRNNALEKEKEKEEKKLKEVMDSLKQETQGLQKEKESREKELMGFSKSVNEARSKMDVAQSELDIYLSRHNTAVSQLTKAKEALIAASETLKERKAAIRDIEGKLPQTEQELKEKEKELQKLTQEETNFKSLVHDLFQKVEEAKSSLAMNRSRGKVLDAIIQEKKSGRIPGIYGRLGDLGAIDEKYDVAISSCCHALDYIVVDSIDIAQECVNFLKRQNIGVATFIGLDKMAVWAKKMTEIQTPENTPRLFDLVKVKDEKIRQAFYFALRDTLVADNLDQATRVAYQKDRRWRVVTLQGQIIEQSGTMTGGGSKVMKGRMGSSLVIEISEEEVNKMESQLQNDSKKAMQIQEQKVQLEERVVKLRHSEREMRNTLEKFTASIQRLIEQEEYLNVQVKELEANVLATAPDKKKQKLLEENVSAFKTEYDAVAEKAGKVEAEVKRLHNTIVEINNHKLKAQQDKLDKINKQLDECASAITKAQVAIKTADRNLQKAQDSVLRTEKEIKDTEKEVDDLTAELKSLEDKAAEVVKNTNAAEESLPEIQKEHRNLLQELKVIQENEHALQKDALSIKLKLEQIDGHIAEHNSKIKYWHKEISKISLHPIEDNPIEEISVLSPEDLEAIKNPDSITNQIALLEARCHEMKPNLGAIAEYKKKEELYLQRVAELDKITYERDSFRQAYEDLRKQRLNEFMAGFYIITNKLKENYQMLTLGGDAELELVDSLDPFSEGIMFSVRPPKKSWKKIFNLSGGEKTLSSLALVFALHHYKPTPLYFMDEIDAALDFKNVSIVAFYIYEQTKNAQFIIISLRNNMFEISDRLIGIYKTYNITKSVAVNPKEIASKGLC
UniProt Q13485: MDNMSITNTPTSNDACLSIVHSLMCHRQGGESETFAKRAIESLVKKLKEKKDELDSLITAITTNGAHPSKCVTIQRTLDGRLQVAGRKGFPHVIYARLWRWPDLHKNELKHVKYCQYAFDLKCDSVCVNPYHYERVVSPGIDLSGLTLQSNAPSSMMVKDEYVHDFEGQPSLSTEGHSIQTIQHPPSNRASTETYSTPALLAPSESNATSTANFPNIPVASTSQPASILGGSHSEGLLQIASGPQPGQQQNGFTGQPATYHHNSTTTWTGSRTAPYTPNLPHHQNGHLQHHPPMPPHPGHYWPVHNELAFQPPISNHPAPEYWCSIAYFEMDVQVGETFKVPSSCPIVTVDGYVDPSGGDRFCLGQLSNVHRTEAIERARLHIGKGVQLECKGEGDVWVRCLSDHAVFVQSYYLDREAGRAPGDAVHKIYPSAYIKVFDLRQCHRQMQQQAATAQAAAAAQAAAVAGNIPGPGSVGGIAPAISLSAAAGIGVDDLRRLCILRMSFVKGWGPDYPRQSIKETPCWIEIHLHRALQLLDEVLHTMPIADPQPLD
UniProt Q8IY18: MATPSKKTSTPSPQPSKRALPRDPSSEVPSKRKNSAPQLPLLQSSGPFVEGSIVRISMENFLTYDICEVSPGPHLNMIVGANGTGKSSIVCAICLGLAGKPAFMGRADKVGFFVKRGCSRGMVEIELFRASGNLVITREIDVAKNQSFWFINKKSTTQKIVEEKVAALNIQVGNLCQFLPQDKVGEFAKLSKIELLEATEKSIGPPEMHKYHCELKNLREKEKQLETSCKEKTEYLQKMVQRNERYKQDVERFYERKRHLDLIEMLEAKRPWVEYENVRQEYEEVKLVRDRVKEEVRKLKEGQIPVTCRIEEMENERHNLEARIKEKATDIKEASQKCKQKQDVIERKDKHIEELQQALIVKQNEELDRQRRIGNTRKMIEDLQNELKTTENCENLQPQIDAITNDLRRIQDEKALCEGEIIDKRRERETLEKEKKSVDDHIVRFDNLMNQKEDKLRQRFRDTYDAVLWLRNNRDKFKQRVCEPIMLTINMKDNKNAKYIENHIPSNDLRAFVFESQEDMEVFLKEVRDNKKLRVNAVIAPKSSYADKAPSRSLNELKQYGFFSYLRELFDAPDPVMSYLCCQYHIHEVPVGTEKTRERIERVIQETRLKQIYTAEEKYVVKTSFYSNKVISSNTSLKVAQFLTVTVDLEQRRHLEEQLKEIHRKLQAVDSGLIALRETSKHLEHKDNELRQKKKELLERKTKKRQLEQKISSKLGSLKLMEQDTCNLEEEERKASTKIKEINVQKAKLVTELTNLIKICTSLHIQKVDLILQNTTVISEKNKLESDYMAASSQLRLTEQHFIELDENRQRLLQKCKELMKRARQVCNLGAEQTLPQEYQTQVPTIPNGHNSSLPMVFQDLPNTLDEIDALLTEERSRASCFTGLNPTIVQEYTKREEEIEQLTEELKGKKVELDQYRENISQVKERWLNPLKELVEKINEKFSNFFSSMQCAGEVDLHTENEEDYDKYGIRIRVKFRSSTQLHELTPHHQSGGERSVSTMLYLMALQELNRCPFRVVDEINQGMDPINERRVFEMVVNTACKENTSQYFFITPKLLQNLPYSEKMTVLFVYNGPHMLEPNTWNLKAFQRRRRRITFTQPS
UniProt O60504: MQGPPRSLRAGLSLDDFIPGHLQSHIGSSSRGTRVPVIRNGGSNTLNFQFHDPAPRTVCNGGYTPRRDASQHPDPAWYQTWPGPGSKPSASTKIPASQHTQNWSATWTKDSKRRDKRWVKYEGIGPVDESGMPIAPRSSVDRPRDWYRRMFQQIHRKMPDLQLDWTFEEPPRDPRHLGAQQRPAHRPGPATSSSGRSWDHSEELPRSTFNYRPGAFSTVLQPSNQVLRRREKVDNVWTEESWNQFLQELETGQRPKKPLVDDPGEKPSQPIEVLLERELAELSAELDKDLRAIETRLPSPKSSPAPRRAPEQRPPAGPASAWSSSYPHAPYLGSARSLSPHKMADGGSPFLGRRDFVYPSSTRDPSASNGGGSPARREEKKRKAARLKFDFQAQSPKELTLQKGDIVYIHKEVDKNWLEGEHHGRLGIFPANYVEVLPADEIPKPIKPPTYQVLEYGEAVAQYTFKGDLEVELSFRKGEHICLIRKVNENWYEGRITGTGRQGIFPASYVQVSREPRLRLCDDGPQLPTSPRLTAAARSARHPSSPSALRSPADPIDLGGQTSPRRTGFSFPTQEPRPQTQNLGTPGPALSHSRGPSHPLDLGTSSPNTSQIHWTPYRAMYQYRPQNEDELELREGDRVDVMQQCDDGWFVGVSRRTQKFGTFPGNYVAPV
UniProt Q9Y5W8: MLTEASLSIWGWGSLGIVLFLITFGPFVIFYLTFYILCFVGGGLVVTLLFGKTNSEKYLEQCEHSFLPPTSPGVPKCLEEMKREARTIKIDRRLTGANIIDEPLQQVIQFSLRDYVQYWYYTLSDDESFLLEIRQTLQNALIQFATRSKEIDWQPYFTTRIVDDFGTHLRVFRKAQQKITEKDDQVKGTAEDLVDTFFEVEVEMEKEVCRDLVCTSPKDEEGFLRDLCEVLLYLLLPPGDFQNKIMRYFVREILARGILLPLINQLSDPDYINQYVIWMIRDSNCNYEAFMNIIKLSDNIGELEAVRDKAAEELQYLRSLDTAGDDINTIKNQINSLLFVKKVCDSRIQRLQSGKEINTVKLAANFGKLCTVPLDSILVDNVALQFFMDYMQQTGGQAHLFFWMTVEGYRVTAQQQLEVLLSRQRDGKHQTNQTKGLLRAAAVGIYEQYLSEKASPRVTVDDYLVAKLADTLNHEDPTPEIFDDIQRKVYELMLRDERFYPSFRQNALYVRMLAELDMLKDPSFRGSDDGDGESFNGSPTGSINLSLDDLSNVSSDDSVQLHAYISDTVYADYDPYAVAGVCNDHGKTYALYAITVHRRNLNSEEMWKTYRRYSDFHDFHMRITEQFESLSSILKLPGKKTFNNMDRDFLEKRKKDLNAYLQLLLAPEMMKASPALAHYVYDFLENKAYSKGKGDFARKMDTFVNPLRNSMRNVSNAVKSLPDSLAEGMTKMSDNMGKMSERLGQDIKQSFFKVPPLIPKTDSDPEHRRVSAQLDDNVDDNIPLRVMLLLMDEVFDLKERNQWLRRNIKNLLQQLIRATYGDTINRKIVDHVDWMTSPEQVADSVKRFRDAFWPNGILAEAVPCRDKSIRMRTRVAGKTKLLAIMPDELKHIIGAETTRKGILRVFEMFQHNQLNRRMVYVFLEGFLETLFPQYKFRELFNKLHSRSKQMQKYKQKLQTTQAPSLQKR
UniProt P58511: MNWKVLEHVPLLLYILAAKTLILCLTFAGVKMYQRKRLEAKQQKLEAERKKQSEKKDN
UniProt P62308, whole entry, looked up: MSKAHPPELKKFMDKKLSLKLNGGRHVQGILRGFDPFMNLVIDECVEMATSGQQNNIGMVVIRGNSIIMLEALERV

Tests used:
Assay in all cases: log2 fold change, soluble protein after heating vs DMSO (PISA); higher = thermal stabilisation; K562 cells, 10 uM, 30 min; active = over 0.2 and 3.5 SD of the protein, either way, in both replicates (recomputed)
[1] = compound: C1=CC=C(C=C1)[C@H](COC2=CC3=C(C=C2)NC(=O)N3)NC(=O)C4=CC=CN(C4=O)CC5=CC(=C(C=C5)F)F
Procedure, shortened: (§1)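 K562 cells at 2×10^6 cells/mL were treated with 10 μM compound for 30 min. Aliquots were heated for 3 min across 48°C-58°C, pooled, and extracted in PBS with 0.5% NP-40 at 4°C; soluble protein was the supernatant after 21,000xg for 90 min. Soluble protein was quantified by TMTpro 16plex LC-MS/MS with channel sums equalised, and reported as log2 fold change in thermal stability against DMSO controls, with values from duplicates.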

[2] = compound: CC1=C(SC2=C1C(=N[C@H](C3=NN=C(N32)C)CC(=O)N)C4=CC=C(C=C4)Cl)C
Procedure, shortened: as §1

[3] = compound: CC1=C2C(=CC=C1)N=C(N(C2=O)C3=CC=CC=C3C)CN4C=NC5=C(N=CN=C54)N
Procedure, shortened: as §1

[4] = compound: Cc1sc2c(c1C)C(c1ccc(Cl)cc1)=N[C@@H](CC(=O)OC(C)(C)C)c1nnc(C)n1-2
Procedure, shortened: as §1

[5] = compound: c1ccc([C@@H]2C[C@H]2NC2CCNCC2)cc1
Procedure, shortened: as §1

Target | log2 fold change [1] | log2 fold change [2] | log2 fold change [3] | log2 fold change [4] | log2 fold change [5]
SMIM13 (UniProt P0DJ93) | inactive: 0.052 |  |  |  | 
SMIM4 (UniProt Q8WVI0) | inactive: -0.061 | inactive: -0.056 | inactive: 0.023 | inactive: -0.064 | inactive: 0.198
SMG5 (UniProt Q9UPR3) | inactive: 0.106 | inactive: -0.018 | inactive: -0.051 | inactive: 0.007 | inactive: 0
SNTB2 (UniProt Q13425) | inactive: -0.128 | inactive: 0.071 | inactive: 0.092 | inactive: -0.039 | inactive: 0.041
SOCS2 (UniProt O14508) | inactive: -0.043 | inactive: -0.042 | inactive: 0.062 | inactive: 0.037 | inactive: 0.071
SNCG (UniProt O76070) | inactive: 0.015 | inactive: 0.028 | inactive: 0.035 | inactive: 0.022 | inactive: 0.019
SNX12 isoform 1 (UniProt Q9UMY4) | inactive: 0.016 | inactive: -0.009 | inactive: 0.095 | inactive: 0.026 | inactive: 0.02
SMIM12 (UniProt Q96EX1) | inactive: 0.015 | inactive: 0.135 | inactive: 0.275 | inactive: -0.15 | inactive: -0.055
SOX5 (UniProt P35711) | inactive: -0.033 | inactive: 0.005 | inactive: -0.058 | inactive: -0.018 | inactive: -0.022
SMC4 (UniProt Q9NTJ3) | inactive: -0.035 | inactive: 0.028 | inactive: 0.051 | inactive: 0.029 | inactive: -0.009
SMAD4 (UniProt Q13485) | inactive: -0.015 | inactive: 0.038 | inactive: 0.058 | inactive: -0.027 | inactive: -0.004
SMC5 (UniProt Q8IY18) | inactive: 0.017 | inactive: 0.045 | inactive: -0.006 | inactive: -0.028 | inactive: -0.005
SORBS3 (UniProt O60504) | inactive: -0.074 |  |  |  | 
SNX13 (UniProt Q9Y5W8) | inactive: -0.081 |  |  |  | 
SNCA (UniProt P37840) | inactive: 0.055 | inactive: 0.086 | inactive: 0.017 | inactive: -0.046 | inactive: 0.007
SMYD2 (UniProt Q9NRG4) | inactive: 0.018 | inactive: -0.096 | inactive: 0.086 | inactive: -0.056 | inactive: 0.065
SMARCC1 (UniProt Q92922) | inactive: -0.11 | inactive: 0.06 | inactive: 0.169 | inactive: -0.046 | inactive: 0.005
SNRPD3 (UniProt P62318) | inactive: 0.035 | inactive: -0.029 | inactive: 0 | inactive: 0.106 | inactive: 0.036
SMU1 (UniProt Q2TAY7) | inactive: 0.012 | inactive: 0.017 | inactive: -0.072 | inactive: -0.024 | inactive: 0.049
SMIM11A (UniProt P58511) | inactive: 0.111 |  |  |  | 
SNRNP27 (UniProt Q8WVK2) | inactive: 0.027 | inactive: -0.058 | inactive: 0.021 | inactive: 0.023 | inactive: 0.044
SNRPG (UniProt P62308) | inactive: 0.026 | inactive: 0.015 | inactive: 0.021 | inactive: 0.099 | inactive: 0.059
SMAP2 (UniProt Q8WU79) | inactive: -0.041 | inactive: 0.013 | inactive: 0.086 | inactive: 0.001 | inactive: 0.011
SMARCA2 (UniProt P51531) | inactive: 0.084 |  |  |  | 
SOAT1 (UniProt P35610) | inactive: -0.023 | inactive: 0.037 | inactive: 0.071 | active: 0.802 | inactive: 0.001
SLK isoform 2 (UniProt Q9H2G2) | inactive: 0.016 | inactive: 0.034 | inactive: 0.042 | inactive: 0.021 | inactive: -0.005

Single records (already shown). Order of values: log2 fold change [1] | log2 fold change [2] | log2 fold change [3] | log2 fold change [4] | log2 fold change [5]
SNCA (UniProt P37840) in the list: inactive: 0.055 | inactive: 0.086 | inactive: 0.017 | inactive: -0.046 | inactive: 0.007
SNRPD3 (UniProt P62318) in the list: inactive: 0.035 | inactive: -0.029 | inactive: 0 | inactive: 0.106 | inactive: 0.036
